Publication PMC8024396, “Biochemical and structural characterization of the BioZ enzyme engaged in bacterial biotin synthesis pathway” (Nature Communications, 2021)
Results are given in words; binding and its absence hold for the method and conditions named. Some entries that bind do so weakly or less than the wild type.

Target: Agrobacterium tumefaciens BioZ (Agrobacterium tumefaciens)
Experiment: crystal structure; AtBioZ, hanging drop, 0.2 M sodium nitrate, 20% PEG 3350, 16 °C; space group P212121, two protomers per asymmetric unit; 1.99 Å; both purified

B1: Agrobacterium tumefaciens BioZ (enzyme, UniProt A0AA44F6N6 1-328, looked up)
chain: MQTRSSRMAGFGHAVPARCVRNAEIETRLGLEAGWIERRTGIRTRYWAQEGETLSGLAEKAGRMALENARIGAEDIALTLLATSTPDHLLPPSAPLLAHRLGLTQSGAIDLAGACSGFLYALTLADGFVRTHGRAVLVVAANILSRRINPAERATAVLFADAAGAVVLVPCRDAQRGLLSADLVSDGSGYDLIQIAAGGSSQPFSNDTEAEDTLMTMRDGREVFSRAVATMTQTSQRALQRAEMTATDIQRFLPHQANARMFDAVCGNIGIDRQKTVRTVETFGNSSAATIPLSLSVSNAERPITEGETLLLTAAGAGMTGGAVVYRG
notes: BioZ (FabH2), atypical beta-ketoacyl-ACP synthase III of Agrobacterium tumefaciens; bioZ gene cloned into pET28a; apparent mass ~36 kDa; 654 protein residues in the two protomers of PDB 6KUE; also called AtBioZ; FabH2; source: E. coli BL21 with pET28::atbioZ, purified (Ni-NTA, TEV cleavage, Superdex 200 Increase SEC); not shown: His6, N-terminal, cleaved
With B1 the binding was “binds”.
